Experimental data published in US11672815B2, “Composition for inhibiting immune cell proliferation comprising sialyllactose or derivative thereof and method thereof” (CUPIONE CO., LTD., priority 2017, dated 2023).
For at least one compound, name, drawing or mass did not settle the structure.

Tested on: Mmp3, Mmp13, and COX2
Assay: Mmp3, Mmp13 and COX2 expression in IL-1β-treated mouse FLS
Format: cell-based
Procedure: Anti-chemokine and anti-inflammatory effects of 3′-sialyllactose were examined. First, purity of mouse FLS was examined by FACS analysis, and then no effects of 3′-sialyllactose on FLS proliferation and cytotoxicity were examined by WST-1 assay (see FIGS. 14A-A to 14A-C). […] Therefore, in a subsequent in vitro experiment, 3′-sialyllactose was used at a concentration of 0 μM to 250 μM. In order to examine effects of 3′-sialyllactose on IL-1β-, IL-6-, IL-17-, and TNF-α-induced chemokines (e.g., CCL2, CCL5, CCL7, CXCL1, CXCL2, and CXCL5), pro-inflammatory cytokines (IL-1, IL-6, and TNF-α), and COX2 expression, IL-1β-, IL-6-, IL-17-, and TNF-α-stimulated human RA-FLS and mouse FLS were treated with 3′-sialyllactose (100 μM or 250 μM) for 24 hrs.
FIGS. 14A-A and 14A-B show FACS results of analyzing marker expression on the FLS surfaces in a mouse according to passages (FIG. 14A-A: CD90.2; FIG. 14A-B: CD14), and a graph of cytotoxicity confirmed by WST-1 assay (FIG. 14A-C), and FIG. 14B is a graph showing Mmp3, Mmp13, and COX2 expression levels according to lactose, sialic acid, and 3′-sialyllactose in IL-1β-treated mouse FLS.

CC(=O)N[C@H]1[C@H]([C@H](O)[C@H](O)CO)OC(O)(C(=O)O)C[C@@H]1O (stereo partly shown) [sialic acid]
Mmp3, Mmp13, and COX2 expression levels, control groups for 3′-sialyllactose: no significant difference
